Results as given in patent publication US20070243579A1.
Results are given in words; binding and its absence hold for the method and conditions named. Binding seen in cells or lysates may run through a third protein. Some entries that bind do so weakly or less than the wild type. Where a sequence is shown, tags or fusion partners need not be part of it.

Assays:
[1] = biological target: T1, Dbf2 N305A kinase dead (S. cerevisiae) (UniProt P22204); assay: co-expression in yeast, co-purification on glutathione sepharose
T1 sequence (looked up): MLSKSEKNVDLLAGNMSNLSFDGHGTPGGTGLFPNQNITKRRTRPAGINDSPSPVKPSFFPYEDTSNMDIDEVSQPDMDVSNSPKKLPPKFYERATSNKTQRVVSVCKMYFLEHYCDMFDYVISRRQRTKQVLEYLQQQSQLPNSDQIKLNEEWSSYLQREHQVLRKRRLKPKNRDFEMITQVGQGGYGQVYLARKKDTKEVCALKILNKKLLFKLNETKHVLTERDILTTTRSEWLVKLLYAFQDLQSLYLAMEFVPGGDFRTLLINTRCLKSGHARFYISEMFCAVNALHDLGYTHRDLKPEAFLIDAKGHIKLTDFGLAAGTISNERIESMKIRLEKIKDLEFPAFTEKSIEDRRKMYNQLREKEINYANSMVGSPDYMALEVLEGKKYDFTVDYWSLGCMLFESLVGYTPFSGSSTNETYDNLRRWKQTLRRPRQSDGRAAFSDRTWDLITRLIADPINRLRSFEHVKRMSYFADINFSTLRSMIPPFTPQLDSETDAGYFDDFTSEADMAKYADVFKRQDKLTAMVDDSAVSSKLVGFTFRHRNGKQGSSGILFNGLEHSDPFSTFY

[2] = biological target: T2, untagged Dbf2, wild type (S. cerevisiae) (UniProt P22204); assay: as above
T2 sequence (looked up): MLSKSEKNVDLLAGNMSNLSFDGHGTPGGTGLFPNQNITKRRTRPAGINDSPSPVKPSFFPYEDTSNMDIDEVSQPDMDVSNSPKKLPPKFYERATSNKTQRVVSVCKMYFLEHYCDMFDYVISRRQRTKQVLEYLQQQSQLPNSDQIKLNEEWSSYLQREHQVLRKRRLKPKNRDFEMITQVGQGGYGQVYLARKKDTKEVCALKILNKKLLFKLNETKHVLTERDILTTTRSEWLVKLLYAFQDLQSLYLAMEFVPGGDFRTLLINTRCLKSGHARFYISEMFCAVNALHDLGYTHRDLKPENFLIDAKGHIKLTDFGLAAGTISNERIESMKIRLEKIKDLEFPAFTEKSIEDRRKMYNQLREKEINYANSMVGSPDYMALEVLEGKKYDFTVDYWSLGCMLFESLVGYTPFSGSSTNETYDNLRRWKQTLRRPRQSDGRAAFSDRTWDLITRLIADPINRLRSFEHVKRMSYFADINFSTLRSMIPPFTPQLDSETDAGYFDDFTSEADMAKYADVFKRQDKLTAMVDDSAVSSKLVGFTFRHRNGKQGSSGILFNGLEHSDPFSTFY

[3] = biological target: T2, untagged Dbf2, wild type (S. cerevisiae); assay: co-expression in mob1-deleted yeast, co-purification on glutathione sepharose

Measured: binding

B1: GST-Mob1 (protein, S. cerevisiae, UniProt P40484 1-314, looked up, not shown: a dimerising Fc or GST)
chain: MSFLQNFHISPGQTIRSTRGFKWNTANAANNAGSVSPTKATPHNNTINGNNNNANTINNRADFTNNPVNGYNESDHGRMSPVLTTPKRHAPPPEQLQNVTDFNYTPSHQKPFLQPQAGTTVTTHQDIKQIVEMTLGSEGVLNQAVKLPRGEDENEWLAVHCVDFYNQINMLYGSITEFCSPQTCPRMIATNEYEYLWAFQKGQPPVSVSAPKYVECLMRWCQDQFDDESLFPSKVTGTFPEGFIQRVIQPILRRLFRVYAHIYCHHFNEILELNLQTVLNTSFRHFCLFAQEFELLRPADFGPLLELVMELRDR
binds: all assays above
